Reference: PMC7956682
No constants are given. Whether binding was seen depends on the method and setting. Binding seen in cells or lysates may run through a third protein. Some entries that bind do so weakly or less than the wild type.

The chains behind the UniProt entries cited, without tags or fusion partners. Where a name states a change or a piece, a line headed by the entry shows the natural chain unless it says otherwise.
UniProt P29067: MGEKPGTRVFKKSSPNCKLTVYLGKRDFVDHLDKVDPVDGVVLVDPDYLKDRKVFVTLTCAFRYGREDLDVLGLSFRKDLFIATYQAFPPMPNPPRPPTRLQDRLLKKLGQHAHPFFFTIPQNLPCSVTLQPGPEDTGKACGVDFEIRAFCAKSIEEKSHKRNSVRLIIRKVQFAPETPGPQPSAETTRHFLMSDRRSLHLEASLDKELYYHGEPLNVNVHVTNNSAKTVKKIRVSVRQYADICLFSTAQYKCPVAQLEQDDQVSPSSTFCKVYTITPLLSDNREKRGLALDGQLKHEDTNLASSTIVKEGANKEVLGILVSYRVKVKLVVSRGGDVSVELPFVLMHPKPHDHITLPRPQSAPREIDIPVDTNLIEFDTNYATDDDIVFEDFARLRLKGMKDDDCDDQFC

Biological target: L395Q ARRB2-YFP (UniProt P29067)
Experiment: co-IP; lysates of transfected HEK293 cells on GFP-Trap magnetic beads (anti-GFP VHH) overnight at 4 °C, three washes in RIPA buffer, eluates immunoblotted; GFP plasmid as negative control

B1: treacle protein (TCOF1) (protein, UniProt Q13428 1-1488)
chain: MAEARKRRELLPLIYHHLLRAGYVRAAREVKEQSGQKCFLAQPVTLLDIYTHWQQTSELGRKRKAEEDAALQAKKTRVSDPISTSESSEEEEEAEAETAKATPRLASTNSSVLGADLPSSMKEKAKAETEKAGKTGNSMPHPATGKTVANLLSGKSPRKSAEPSANTTLVSETEEEGSVPAFGAAAKPGMVSAGQADSSSEDTSSSSDETDVEGKPSVKPAQVKASSVSTKESPARKAAPAPGKVGDVTPQVKGGALPPAKRAKKPEEESESSEEGSESEEEAPAGTRSQVKASEKILQVRAASAPAKGTPGKGATPAPPGKAGAVASQTKAGKPEEDSESSSEESSDSEEETPAAKALLQAKASGKTSQVGAASAPAKESPRKGAAPAPPGKTGPAVAKAQAGKREEDSQSSSEESDSEEEAPAQAKPSGKAPQVRAASAPAKESPRKGAAPAPPRKTGPAAAQVQVGKQEEDSRSSSEESDSDREALAAMNAAQVKPLGKSPQVKPASTMGMGPLGKGAGPVPPGKVGPATPSAQVGKWEEDSESSSEESSDSSDGEVPTAVAPAQEKSLGNILQAKPTSSPAKGPPQKAGPVAVQVKAEKPMDNSESSEESSDSADSEEAPAAMTAAQAKPALKIPQTKACPKKTNTTASAKVAPVRVGTQAPRKAGTATSPAGSSPAVAGGTQRPAEDSSSSEESDSEEEKTGLAVTVGQAKSVGKGLQVKAASVPVKGSLGQGTAPVLPGKTGPTVTQVKAEKQEDSESSEEESDSEEAAASPAQVKTSVKKTQAKANPAAARAPSAKGTISAPGKVVTAAAQAKQRSPSKVKPPVRNPQNSTVLARGPASVPSVGKAVATAAQAQTGPEEDSGSSEEESDSEEEAETLAQVKPSGKTHQIRAALAPAKESPRKGAAPTPPGKTGPSAAQAGKQDDSGSSSEESDSDGEAPAAVTSAQVIKPPLIFVDPNRSPAGPAATPAQAQAASTPRKARASESTARSSSSESEDEDVIPATQCLTPGIRTNVVTMPTAHPRIAPKASMAGASSSKESSRISDGKKQEGPATQVSKKNPASLPLTQAALKVLAQKASEAQPPVARTQPSSGVDSAVGTLPATSPQSTSVQAKGTNKLRKPKLPEVQQATKAPESSDDSEDSSDSSSGSEEDGEGPQGAKSAHTLGPTPSRTETLVEETAAESSEDDVVAPSQSLLSGYMTPGLTPANSQASKATPKLDSSPSVSSTLAAKDDPDGKQEAKPQQAAGMLSPKTGGKEAASGTTPQKSRKPKKGAGNPQASTLALQSNITQCLLGQPWPLNEAQVQASVVKVLTELLEQERKKVVDTTKESSRKGWESRKRKLSGDQPAARTPRSKKKKKLGAGEGGEASVSPEKTSTTSKGKAKRDKASGDVKEKKGKGSLGSQGAKDEPEEELQKGMGTVEGGDQSNPKSKKEKKKSDKRKKDKEKKEKKKKAKKASTKDSESPSQKKKKKKKKTAEQTV
B1 was tested, and the binding was “binds”.
